Reference: paper PMC8758767
Results are given in words; binding and its absence hold for the method and conditions named. Binding seen in cells or lysates may run through a third protein. Some entries that bind do so weakly or less than the wild type.

Amino acid sequences for entries named in this document (tags omitted).
UniProt P09211: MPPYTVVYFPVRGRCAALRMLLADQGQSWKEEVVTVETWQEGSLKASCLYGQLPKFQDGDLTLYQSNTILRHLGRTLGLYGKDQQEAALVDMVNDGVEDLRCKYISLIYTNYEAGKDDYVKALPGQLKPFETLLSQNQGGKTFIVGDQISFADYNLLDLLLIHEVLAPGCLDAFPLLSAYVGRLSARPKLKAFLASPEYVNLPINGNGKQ
UniProt P45983: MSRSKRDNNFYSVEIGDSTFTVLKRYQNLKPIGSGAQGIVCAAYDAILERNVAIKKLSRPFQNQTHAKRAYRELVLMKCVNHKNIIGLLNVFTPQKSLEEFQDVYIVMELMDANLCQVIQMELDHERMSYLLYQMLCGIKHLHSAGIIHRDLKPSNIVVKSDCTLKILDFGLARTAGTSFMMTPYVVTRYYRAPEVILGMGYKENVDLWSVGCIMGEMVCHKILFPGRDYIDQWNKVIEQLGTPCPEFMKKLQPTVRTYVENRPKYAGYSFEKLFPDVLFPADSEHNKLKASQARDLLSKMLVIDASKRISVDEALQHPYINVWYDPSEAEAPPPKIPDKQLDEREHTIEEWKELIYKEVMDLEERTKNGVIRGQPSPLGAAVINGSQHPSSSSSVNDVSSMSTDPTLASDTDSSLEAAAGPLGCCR

Experiments:
[1] = target: GSTπ (human (endogenous in MDA-MB-436 and MCF-7)) (UniProt P09211); assay: condition: only in HBXIP/Nrf2 knock-down cells (Prdx1 downregulated); co-IP; cellular protein extracts of ECM-detached HBXIP/Nrf2 knock-down breast cancer cells (Prdx1 downregulated; with or without NAC) immunoprecipitated with an anti-GSTπ antibody; JNK1 and Prdx1 detected by western blotting
[2] = target: GSTπ (human (endogenous in MDA-MB-436 and MCF-7)) (UniProt P09211); assay: co-IP; cellular protein extracts of ECM-detached stable MDA-MB-436 and MCF-7 cell lines (control, HBXIP/Nrf2 overexpression, HBXIP or Nrf2 overexpression in HBXIP/Nrf2 KD cells; with or without H2O2 or NAC) immunoprecipitated with an anti-GSTπ antibody; goat IgG as negative control; JNK1 and Prdx1 detected by western blotting

binding [1] | binding [2] | Molecule
no binding | binds | JNK1 (from UniProt P45983 1-427)
– | binds | peroxiredoxin 1 (Prdx1) (protein, UniProt Q06830 1-199) MSSGNAKIGHPAPNFKATAVMPDGQFKDISLSDYKGKYVVFFFYPLDFTFVCPTEIIAFSDRAEEFKKLNCQVIGASVDSHFCHLAWVNTPKKQGGLGPMNIPLVSDPKRTIAQDYGVLKADEGISFRGLFIIDDKGILRQITVNDLPVGRSVDETLRLVQAFQFTDKHGEVCPAGWKPGSDTIKPDVQKSKEYFSKQK
